These are yes or no findings as the source states them, for the method shown.
How the values were obtained:
Test in all cases: flow cytometry on cells; lymph node or spleen cells of wild-type, CD55-/-, Crry-/- and CD59a-/- mice incubated with Pra1 (10 μg/ml) in PBS at 37°C, with or without ZnCl2; bound Pra1 detected with rabbit anti-Pra1 antiserum; gated on CD4+ T cells; Pra1 staining compared between wild-type and knock-out cells; only the binder purified
[1] = target: T1, CD59a, mouse complement regulatory protein (mouse (endogenous in splenic CD4+ T cells)) (UniProt O55186)
T1 sequence: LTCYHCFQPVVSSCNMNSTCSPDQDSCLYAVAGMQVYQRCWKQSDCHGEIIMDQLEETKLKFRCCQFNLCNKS

Amino acid sequences for entries named in this document (tags omitted). Residues count along the entry.
UniProt Q64735, residues 41-483: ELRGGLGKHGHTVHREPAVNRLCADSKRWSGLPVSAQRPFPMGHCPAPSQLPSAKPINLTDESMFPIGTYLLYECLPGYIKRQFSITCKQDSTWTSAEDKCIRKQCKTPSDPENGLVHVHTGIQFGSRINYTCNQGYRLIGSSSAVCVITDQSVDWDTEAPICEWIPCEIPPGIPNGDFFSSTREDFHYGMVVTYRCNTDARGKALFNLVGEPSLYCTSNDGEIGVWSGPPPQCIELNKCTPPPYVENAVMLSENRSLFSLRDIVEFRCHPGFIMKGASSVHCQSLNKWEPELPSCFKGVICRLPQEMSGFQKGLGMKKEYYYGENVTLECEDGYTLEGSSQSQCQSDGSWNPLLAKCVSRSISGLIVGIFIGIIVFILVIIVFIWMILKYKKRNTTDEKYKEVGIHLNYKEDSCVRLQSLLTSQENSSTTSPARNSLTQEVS

[2] = target: T2, CD55, mouse complement regulatory protein (mouse (endogenous in lymph node CD4+ T cells)) (UniProt Q61475)
T2 sequence: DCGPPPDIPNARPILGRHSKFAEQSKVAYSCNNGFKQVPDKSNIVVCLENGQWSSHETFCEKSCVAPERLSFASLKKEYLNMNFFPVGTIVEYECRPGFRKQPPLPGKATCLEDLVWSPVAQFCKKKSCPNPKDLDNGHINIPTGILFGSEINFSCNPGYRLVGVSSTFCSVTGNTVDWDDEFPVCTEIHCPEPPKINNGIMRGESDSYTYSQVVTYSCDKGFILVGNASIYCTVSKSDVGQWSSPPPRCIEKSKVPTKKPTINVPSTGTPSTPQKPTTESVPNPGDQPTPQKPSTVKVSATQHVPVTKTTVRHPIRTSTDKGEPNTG

[3] = target: Crry, mouse complement regulatory protein (mouse (endogenous in splenic CD4+ T cells)) (UniProt Q64735)

Measured: binding

B1: pH-regulated antigen 1 (Pra1) from Candida albicans, recombinant wild type (protein, UniProt P87020 16-299)
chain: APVTVTRFVDASPTGYDWRADWVKGFPIDSSCNATQYNQLSTGLQEAQLLAEHARDHTLRFGSKSPFFRKYFGNETASAEVVGHFDNVVGADKSSILFLCDDLDDKCKNDGWAGYWRGSNHSDQTIICDLSFVTRRYLTQLCSSGYTVSKSKTNIFWAGDLLHRFWHLKSIGQLVIEHYADTYEEVLELAQENSTYAVRNSNSLIYYALDVYAYDVTIPGEGCNGDGTSYKKSDFSSFEDSDSGSDSGASSTASSSHQHTDSNPSATTDANSHCHTHADGEVHC
no binding (tested: 10 μg/ml): [1] | [2] | [3]
